# The source gives many values for each of these; only a part stands here.
# Tested on: 22Rv1 cells
# Assay: Global proteome analysis (LC-MS/MS, DIA) of differentially expressed proteins
# Type: cell-based, human
# Protocol: 22Rv1 cells were seeded in T75 culture bottles (4 × 10^6 cells/bottle in 20 mL/bottle), treated for 48 h with the 5 µM of compound 11 or vehicle (DMSO), harvested by scratching, washed twice with ice-cold PBS and flash-frozen. Cells were lysed and sonicated. The protein extracts were then heat-denaturated, reduced, alkylated and digested by trypsin. Peptides were chromatographically separated using full recovery autosampler vials and a nano-UPLC system (Acquity, Waters Corporation, Milford, MS, USA), coupled via electrospray ionization (ESI) to a tandem mass spectrometer equipped with a quadrupole and an orbitrap (QExactive, Thermo Fisher Scientific, Bremen, Germany), using MS/MS mode in data dependent acquisition (DDA) and data independent acquisition (DIA). The peptides, analyzed with DDA-LC-MS/MS, were identified with the search engine Sequest, integrated in the Proteome Discoverer software version 2.0 (Thermo Fischer Scientific) using the human Uniprot protein database (EMBL; Hinxton Cambridge, UK, release December 2018). […] For the details of sample preparation and proceeding, data acquisition and analysis see the Supplementary information. […]
# serum (FBS, Invitrogen) and 1% penicillin/streptomycin (Invitrogen)). […]
# Cell lines were lysed in 100 mM triethylammonium bicarbonate and 1% w/v sodium deoxycholate buffer followed by probe sonication to destroy polynucleotides and heat induce protein denaturing at 99 °C for 5 min. Protein concentrations were estimated with a bicinchonic acid (BCA) protein assay (Thermo Fisher Scientific, Bremen, Germany). 20 µg of protein were reduced in presence of 10 mM dithiotreithol (Sigma Aldrich) for 30 min at 60 °C followed by cysteine alkylation with 20 mM iodo acetamide (Sigma Aldrich) for 30 min at 37 °C in the dark and enzymatic degradation with sequencing grade trypsin (Promega) over night at 37 °C. Digestion was quenched with 1% formic acid (FA), precipitated sodium deoxycholate removed by centrifugation for 5 min at 14,000 g and the supernatant was dried in a vacuum centrifuge.
# LC-MS/MS in Data Dependent and Data Independent Mode
# Samples were resuspended in 0.1% FA and transferred into a full recovery autosampler vial (Waters). Chromatographic separation was achieved on a nano -UPLC system (Acquity, Waters Corporation, Milford, MS, USA) with a two-buffer-system (buffer A: 0.1% FA in water, buffer B:
# 0.1% FA in Acetonitrile (ACN), both at pH = 3). Attached to the UPLC was a reversed -phase peptide trapping column (Symmetry C18, 180 µm × 20 mm, 100 Å pore size, 5 µm particle size) for desalting, followed by a reversed-phase capillary separation of the tryptic peptides (BEH C18; 75 µm × 200 mm, 130 Å pore size, 1.7 µm particle size), using a 60 min gradient with increasing ACN concentration from 2–30% ACN. The eluting peptides were analyzed on a quadrupole-orbitrap mass spectrometer (QExactive, Thermo Fisher Scientific, Bremen, Germany) in data dependent acquisition (DDA) and data independent acquisition (DIA) for quantification.
# In DDA mode, one replicate of each cell line was randomly chosen and 1 µg per sample was used per LC-MS/MS run to build a reference spectral library used for data extraction of samples acquired in DIA mode. For DDA, the 12 most intense ions per precursor scan (1 × 10 6 ions, 70,000 Resolution, 120 ms fill time) were analyzed by MS/MS (HCD at 25 normalized collision energy, 1 × 105 ions, 17,500 Resolution, 50 ms fill time) in a range of 400–1300 m/z. A dynamic precursor exclusion of 20 s was used. For DIA, 1 µg of each sample was analyzed using a 30 sequential 20 Da fixed window method covering the mass range from 400 –1000 m/z. Per cycle, 2 precursor scans (1 × […]
# 28 normalized collision energy, 1 × 106 ions, 17,500 Resolution, 50 ms fill time) were performed.
# After the first precursor scan, 15 MS/MS scans were performed covering the precursor mass range from 400–700 m/z followed by the second precursor scan and another 15 MS/MS scans ranging from […]
# LC-MS/MS Data Processing and Analysis […]
compound,measurement,setting,value
CC1(C)OC2OC(C(O)COC3=CC(=O)c4cccc(O)c4C3=O)C(O)C2O1 (stereo not drawn) [Compound 11],Fold change (treated / control),TOM34_HUMAN Q15785,0.4323
same,Fold change (treated / control),TOP2A_HUMAN P11388,0.2459
same,Fold change (treated / control),TOP2B_HUMAN Q02880,0.7139
same,Fold change (treated / control),TPM3_HUMAN P06753,1.217
same,Fold change (treated / control),TPM4_HUMAN P67936,1.728
same,Fold change (treated / control),TPP2_HUMAN P29144,1.469
same,Fold change (treated / control),TR112_HUMAN Q9UI30,0.7955
same,Fold change (treated / control),TRA2A_HUMAN Q13595,1.534
same,Fold change (treated / control),TRAP1_HUMAN Q12931,0.8199
same,Fold change (treated / control),TRXR1_HUMAN Q16881,3.369
same,Fold change (treated / control),TTL12_HUMAN Q14166,1.248
same,Fold change (treated / control),TXND5_HUMAN Q8NBS9,1.151
same,Fold change (treated / control),UB2L3_HUMAN P68036,1.556
same,Fold change (treated / control),UBA3_HUMAN Q8TBC4,1.35
same,Fold change (treated / control),UBA6_HUMAN A0AVT1,2.181
same,Fold change (treated / control),UBE2K_HUMAN P61086,1.33
same,Fold change (treated / control),UBE2T_HUMAN Q9NPD8,0.4008
same,Fold change (treated / control),UBF1_HUMAN P17480,0.7121
same,Fold change (treated / control),UCHL3_HUMAN P15374,1.311
same,Fold change (treated / control),UCRI_HUMAN P47985,0.5774
same,Fold change (treated / control),UGDH_HUMAN O60701,2.13
same,Fold change (treated / control),UTP18_HUMAN Q9Y5J1,0.63
same,Fold change (treated / control),VA0D1_HUMAN P61421,1.1191
same,Fold change (treated / control),VAT1_HUMAN Q99536,1.327
same,Fold change (treated / control),VATA_HUMAN P38606,1.217
same,Fold change (treated / control),VATB2_HUMAN P21281,1.249
same,Fold change (treated / control),VATE1_HUMAN P36543,1.327
same,Fold change (treated / control),VATH_HUMAN Q9UI12,1.255
same,Fold change (treated / control),VDAC2_HUMAN P45880,1.2774
same,Fold change (treated / control),VGF_HUMAN O15240,0.5125
same,Fold change (treated / control),VIGLN_HUMAN Q00341,0.6343
same,Fold change (treated / control),VPS28_HUMAN Q9UK41,1.5088
same,Fold change (treated / control),VTA1_HUMAN Q9NP79,1.405
same,Fold change (treated / control),VTNC_HUMAN P04004,3.078
same,Fold change (treated / control),WDR36_HUMAN Q8NI36,0.8098
same,Fold change (treated / control),ZBT10_HUMAN Q96DT7,0.5298
same,Fold change (treated / control),ZC11A_HUMAN O75152,0.7642
same,Fold change (treated / control),ZN428_HUMAN Q96B54,0.5792
same,Fold change (treated / control),ZYX_HUMAN Q15942,2.4
same,Fold change (treated / control),protein ABCE1_HUMAN (P61221),0.5106
same,Fold change (treated / control),protein ABHDB_HUMAN (Q8NFV4),0.847
same,Fold change (treated / control),protein ACON_HUMAN (Q99798),0.6906
same,Fold change (treated / control),protein ADIRF_HUMAN (Q15847),0.7019
same,Fold change (treated / control),protein ADPPT_HUMAN (Q9NRN7),0.7187
same,Fold change (treated / control),protein ADT2_HUMAN (P05141),0.7729
same,Fold change (treated / control),protein AL1B1_HUMAN (P30837),0.713
same,Fold change (treated / control),protein AL4A1_HUMAN (P30038),0.7522
same,Fold change (treated / control),protein ANM1_HUMAN (Q99873),0.7068
same,Fold change (treated / control),protein AOFA_HUMAN (P21397),0.8558
same,Fold change (treated / control),protein AT5F1_HUMAN (P24539),0.4995
same,Fold change (treated / control),protein ATAD2_HUMAN (Q6PL18),0.5339
same,Fold change (treated / control),protein ATPA_HUMAN (P25705),0.8586
same,Fold change (treated / control),protein BAP31_HUMAN (P51572),0.7682
same,Fold change (treated / control),protein BZW2_HUMAN (Q9Y6E2),0.8405
same,Fold change (treated / control),protein C10_HUMAN (Q99622),0.6968
same,Fold change (treated / control),protein CAB45_HUMAN (Q9BRK5),0.5255
same,Fold change (treated / control),protein CADH1_HUMAN (P12830),0.7645
same,Fold change (treated / control),protein CBX3_HUMAN (Q13185),0.7648
same,Fold change (treated / control),protein CD44_HUMAN (P16070),0.8349
same,Fold change (treated / control),protein CD63_HUMAN (P08962),0.6871
same,Fold change (treated / control),protein CD166_HUMAN (Q13740),0.8191
same,Fold change (treated / control),protein CDK1_HUMAN (P06493),0.6978
same,Fold change (treated / control),protein CENPV_HUMAN (Q7Z7K6),0.8235
same,Fold change (treated / control),protein CGBP1_HUMAN (Q9UFW8),0.5472
same,Fold change (treated / control),protein CHPT1_HUMAN (Q8WUD6),0.4101
same,Fold change (treated / control),protein CHTOP_HUMAN (Q9Y3Y2),0.4309
same,Fold change (treated / control),protein CLCB_HUMAN (P09497),0.4273
same,Fold change (treated / control),protein CLPT1_HUMAN (O96005),0.5334
same,Fold change (treated / control),protein COA7_HUMAN (Q96BR5),0.6927
same,Fold change (treated / control),protein COX2_HUMAN (P00403),0.7931
same,Fold change (treated / control),protein COX17_HUMAN (Q14061),0.3991
same,Fold change (treated / control),protein COX41_HUMAN (P13073),0.7293
same,Fold change (treated / control),protein CPIN1_HUMAN (Q6FI81),0.457
same,Fold change (treated / control),protein CREL2_HUMAN (Q6UXH1),0.7362
same,Fold change (treated / control),protein CSDE1_HUMAN (O75534),0.3966
same,Fold change (treated / control),protein CTNB1_HUMAN (P35222),0.7244
same,Fold change (treated / control),protein CYB5_HUMAN (P00167),0.6962
same,Fold change (treated / control),protein CYTC_HUMAN (P01034),0.3985
same,Fold change (treated / control),protein DCAKD_HUMAN (Q8WVC6),0.4938
same,Fold change (treated / control),protein DCXR_HUMAN (Q7Z4W1),0.7586
same,Fold change (treated / control),protein DDB1_HUMAN (Q16531),0.7393
same,Fold change (treated / control),protein DDX5_HUMAN (P17844),0.5576
same,Fold change (treated / control),protein DDX27_HUMAN (Q96GQ7),0.7632
same,Fold change (treated / control),protein DDX54_HUMAN (Q8TDD1),0.4463
same,Fold change (treated / control),protein DDX56_HUMAN (Q9NY93),0.5433
same,Fold change (treated / control),protein DECR2_HUMAN (Q9NUI1),0.8098
same,Fold change (treated / control),protein DEK_HUMAN (P35659),0.84
same,Fold change (treated / control),protein DHX9_HUMAN (Q08211),0.8179
same,Fold change (treated / control),protein DIDO1_HUMAN (Q9BTC0),0.5009
same,Fold change (treated / control),protein DNJC7_HUMAN (Q99615),0.6825
same,Fold change (treated / control),protein DNLI1_HUMAN (P18858),0.4962
same,Fold change (treated / control),protein DNLI3_HUMAN (P49916),0.775
same,Fold change (treated / control),protein DNMT1_HUMAN (P26358),0.5164
same,Fold change (treated / control),protein DPM1_HUMAN (O60762),0.7251
same,Fold change (treated / control),protein DRS7B_HUMAN (Q6IAN0),0.7083
same,Fold change (treated / control),protein DSG2_HUMAN (Q14126),0.809
same,Fold change (treated / control),protein DSRAD_HUMAN (P55265),0.7783
same,Fold change (treated / control),protein DUT_HUMAN (P33316),0.4993
same,Fold change (treated / control),protein DX39B_HUMAN (Q13838),0.8243
same,Fold change (treated / control),protein EDN3_HUMAN (P14138),0.08248
same,Fold change (treated / control),protein EMC2_HUMAN (Q15006),0.823
same,Fold change (treated / control),protein ERO1A_HUMAN (Q96HE7),0.6751

# Reference: article PMC6896172, “Successful Targeting of the Warburg Effect in Prostate Cancer by Glucose-Conjugated 1,4-Naphthoquinones” (Cancers, 2019)
